Source: PMC8370739
No constants are given. Whether binding was seen depends on the method and setting. Binding seen in cells or lysates may run through a third protein. Some entries that bind do so weakly or less than the wild type. Tags and fused reporters may be left off the sequences shown.

T1: Rrp43-TAP (carboxy-terminally TAP-tagged Rrp43 core subunit) (S. cerevisiae) (UniProt P25359)
T1 sequence: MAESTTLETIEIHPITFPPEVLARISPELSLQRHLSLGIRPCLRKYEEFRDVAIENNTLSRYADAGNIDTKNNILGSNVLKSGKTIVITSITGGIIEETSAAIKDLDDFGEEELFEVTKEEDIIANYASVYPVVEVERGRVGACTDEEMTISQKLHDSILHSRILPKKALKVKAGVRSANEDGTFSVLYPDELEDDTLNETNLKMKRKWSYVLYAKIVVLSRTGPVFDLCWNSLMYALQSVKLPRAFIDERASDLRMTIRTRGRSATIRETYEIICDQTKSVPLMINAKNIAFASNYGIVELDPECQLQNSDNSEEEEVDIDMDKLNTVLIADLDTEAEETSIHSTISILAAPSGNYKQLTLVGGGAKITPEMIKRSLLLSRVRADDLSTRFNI


Experiments:
[1] = biological target: T1, Rrp43-TAP (carboxy-terminally TAP-tagged Rrp43 core subunit) (S. cerevisiae); assay: co-IP; Rrp43-TAP precipitated with IgG Sepharose beads from lysates of RRP43-TAP cells that contain the endogenous wild-type RRP4 gene and express Myc-tagged Rrp4 proteins; cells grown at 30°C; IPP150 buffer (10 mM Tris-HCl pH 8, 150 mM NaCl, 0.1% NP40), 4°C overnight; anti-Myc immunoblot
[2] = biological target: T1, Rrp43-TAP (carboxy-terminally TAP-tagged Rrp43 core subunit) (S. cerevisiae); assay: co-IP; Rrp43-TAP precipitated with IgG Sepharose beads from lysates of RRP43-TAP rrp4Δ cells that express Rrp4-Myc or Rrp4 G226D-Myc as the sole copy of Rrp4; cells grown at 30°C; IPP150 buffer, 4°C overnight; anti-Myc immunoblot
[3] = biological target: T1, Rrp43-TAP (carboxy-terminally TAP-tagged Rrp43 core subunit) (S. cerevisiae); assay: condition: only with an endogenous, wild-type copy of RRP4 present; co-IP; Rrp43-TAP precipitated with IgG Sepharose beads from lysates of RRP43-TAP cells that contain the endogenous wild-type RRP4 gene and express Myc-tagged Rrp4 proteins; cells grown at 30°C; IPP150 buffer (10 mM Tris-HCl pH 8, 150 mM NaCl, 0.1% NP40), 4°C overnight; anti-Myc immunoblot

Row | binding [1] | binding [2] | binding [3] | Binder
1 | binds | binds |  | Rrp4-2×Myc (wild-type S. cerevisiae Rrp4, Myc-tagged) (protein, UniProt P38792 1-359) MSEVITITKRNGAFQNSSNLSYNNTGISDDENDEEDIYMHDVNSASKSESDSQIVTPGELVTDDPIWMRGHGTYFLDNMTYSSVAGTVSRVNRLLSVIPLKGRYAPETGDHVVGRIAEVGNKRWKVDIGGKQHAVLMLGSVNLPGGILRRKSESDELQMRSFLKEGDLLNAEVQSLFQDGSASLHTRSLKYGKLRNGMFCQVPSSLIVRAKNHTHNLPGNITVVLGVNGYIWLRKTSQMDLARDTPSANNSSSIKSTGPTGAVSLNPSITRLEEESSWQIYSDENDPSISNNIRQAICRYANVIKALAFCEIGITQQRIVSAYEASMVYSNVGELIEKNVMESIGSDILTAEKMRGNGN
2 |  | binds | no binding | Rrp4 G226D-Myc (protein, UniProt P38792 1-359) MSEVITITKRNGAFQNSSNLSYNNTGISDDENDEEDIYMHDVNSASKSESDSQIVTPGELVTDDPIWMRGHGTYFLDNMTYSSVAGTVSRVNRLLSVIPLKGRYAPETGDHVVGRIAEVGNKRWKVDIGGKQHAVLMLGSVNLPGGILRRKSESDELQMRSFLKEGDLLNAEVQSLFQDGSASLHTRSLKYGKLRNGMFCQVPSSLIVRAKNHTHNLPGNITVVLDVNGYIWLRKTSQMDLARDTPSANNSSSIKSTGPTGAVSLNPSITRLEEESSWQIYSDENDPSISNNIRQAICRYANVIKALAFCEIGITQQRIVSAYEASMVYSNVGELIEKNVMESIGSDILTAEKMRGNGN
